# Source: PubChem BioAssay AID602254 (Broad Institute, 2012)
# The campaign covered roughly 1,000 compounds. Fewer than 10 were called active.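 Rule for the calls: active = fitted half-maximal concentration no higher than twice the top valid tested dose, with signal falling; inconclusive = flat curve with 30 to 70% inhibition, or poor fit; inactive = the rest.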 The list shows a part of the results. Potency and affinity values are given separately.
# Target: Golgi-associated PDZ and coiled-coil motif-containing protein (Homo sapiens) (UniProt Q9HD26)
# Test: CAL PDZ domain peptide-binding inhibitors, dose response, biochemical, fluorescence polarization, untagged CAL PDZ, cherry-pick, set 2 (AID 602254);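 note: 0% = DMSO neutral control and -100% = unlabeled peptide PRC23 positive control; more negative means stronger blocking of peptide binding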
# Details: Purified CAL PDZ, TMR peptide fluorescence polarization; at 60 µM (top of the series)
row,Structure (SMILES),"activity change, negative = inhibition"
1,COc1cccc(NC(=O)c2ccc3nsnc3c2)c1,inactive: 1.47%
2,CC(C)NC(=O)COc1coc(CN2CCN(c3ccccc3F)CC2)cc1=O,inactive: -3%
3,Cc1ccsc1CN1CCC(C(=O)NCc2ccccc2Cl)CC1,inactive: 0.835%
4,CCCCN1C[C@H](CO)Oc2cccc(F)c2S1(=O)=O,inactive: 0.778%
5,Cc1cc(O)c(Sc2ccc(Cl)cc2)c(=O)[nH]1,inactive: -0.176%
6,CC(C)n1cc(/C=N/Nc2ccc(C(=O)O)cc2)c2ccccc21,inactive: -1.14%
7,O=S(=O)(NCCc1ccccc1)c1ccc(-n2cnnn2)cc1,inactive: 0.275%
8,COc1ccc(OC)c(NC(=O)NNC(=O)CCCOc2ccc(Cl)cc2C)c1,inactive: 0.743%
9,COc1ccccc1CNC(=O)C1CCN(S(=O)(=O)c2ccc3c(c2)OCCO3)CC1,inactive: 0.61%
10,COC(=O)c1cc2ccsc2n1Cc1cccc(F)c1,inactive: 1.78%
11,CCOC(=O)CCn1c(=S)n(CCC(=O)OCC)c2ccccc21,inactive: 0.593%
12,CC(=O)c1cccc(NC(=O)C(C)OC(=O)CCn2c(C)csc2=O)c1 (stereo not given),inactive: -0.058%
13,CCC(C)c1ccccc1NC(=O)COC(=O)CCc1cc(OC)c(OC)c(OC)c1 (stereo not given),inactive: 1.57%
14,O=C(COC(=O)c1ccc(NC(=O)C2CC=CCC2C(=O)O)cc1)c1ccccc1 (stereo not given),inactive: 4.39%
15,COc1cccc(NC(=O)CN(C)CC(=O)Nc2ccc(Br)cc2)c1,inactive: 1.43%
16,COc1ccc(C(CNC(=O)COc2c(C)cc(C)cc2C)N2CCOCC2)cc1 (stereo not given),inactive: 0.142%
17,CCNC(=S)NNC(=O)c1ccncc1,inactive: -1.57%
18,O=C(Nc1ccc(S(=O)(=O)N2CCCC2)cc1)c1ccc(OCC2CCCO2)cc1 (stereo not given),inactive: 3.08%
19,CCc1ccc(N2C(=O)CC(N3CCN(Cc4ccc5c(c4)OCO5)CC3)C2=O)cc1 (stereo not given),inactive: -0.604%
20,O=C(COc1ccc(-n2cnnn2)cc1)NC(=O)NCc1ccccc1,inactive: 0.033%

row,Structure (SMILES),"activity change, negative = inhibition"
1,COc1ccccc1CNC(=O)COC(=O)CC1CC2CCC1C2 (stereo not given),inactive: 5.21%
2,CC(C)(C)c1ccc(C(=O)NNc2ncccc2-n2cccc2)cc1,inactive: -0.412%
3,CC(=O)c1ccc(OCc2cc(C(=O)NCCc3ccc(Cl)cc3)no2)cc1,inactive: -0.074%
4,COc1cccc(/C=C2\SC(=S)N(CCC(=O)NCCc3ccc(O)cc3)C2=O)c1,inactive: 0.355%
5,O=S1(=O)c2c(F)cccc2OC(COCc2ccccc2)CN1C1CCCC1 (stereo not given),inactive: 9.91%
6,CCOC(=O)c1ccc(NC(=O)C2CCCO2)cc1 (stereo not given),inactive: 5.12%
7,CCOC(=O)c1ccc(NC(=S)NNC(=O)c2cc(-c3cccnc3)nc3ccccc23)cc1,inactive: 0.906%
8,Cc1cn(S(=O)(=O)c2ccc(Cl)cc2)c(C)n1,inactive: 1.3%
9,O=C(COc1ccc(S(=O)(=O)Nc2ccc(Cl)cc2)cc1)N1CCOCC1,inactive: 0.834%
10,CCN(CCO)Cc1csc2ccc(C(C)(C)C)cc12,inactive: -2.52%
11,CN(C)S(=O)(=O)c1cccc(NC(=O)Cc2ccsc2)c1,inactive: -2.05%
12,CC[C@@H]1CCCCc2ccccc2[C@H](C(=O)C[C@H](O)CC(C)=O)OC1=O,inactive: -1.36%
13,O=C(NNC(=O)c1ccc(NC(=O)c2ccccc2)cc1)c1ccc(F)cc1,inactive: 3.24%
14,Cc1ccc(CCNC(=O)C2CCC(=O)N(Cc3cccc(F)c3)C2)cc1 (stereo not given),inactive: -0.437%
15,O=C(CN1C(=O)NC(c2ccc(F)cc2)C1=O)NC1CCCCC1 (stereo not given),inactive: 1.55%
16,CCOCCCNC(=O)N[C@@H](C)C(=O)OC,inactive: 0.129%
17,O=C(O)CC(CNC(=O)C1CCCN1C(=O)OCc1ccccc1)c1ccccc1 (stereo not given),inactive: -2.42%
18,COc1ccccc1CC(=O)NCc1nn(-c2ccccc2)nc1C,inactive: -0.368%
19,CCOc1cc(C)c(Cl)cc1S(=O)(=O)N(CC)CC,inactive: 0.628%
20,COc1ccc(/C=N/NC(=O)CNC(=O)c2ccncc2)cc1OC,inactive: 1.66%

# By substructure, the entries above containing a thiophene ring, fused or not (4)
row,Structure (SMILES),"activity change, negative = inhibition"
3,Cc1ccsc1CN1CCC(C(=O)NCc2ccccc2Cl)CC1,inactive: 0.835%
10,COC(=O)c1cc2ccsc2n1Cc1cccc(F)c1,inactive: 1.78%
10,CCN(CCO)Cc1csc2ccc(C(C)(C)C)cc12,inactive: -2.52%
11,CN(C)S(=O)(=O)c1cccc(NC(=O)Cc2ccsc2)c1,inactive: -2.05%

# Further compounds.

row,Structure (SMILES),"activity change, negative = inhibition"
1,Cn1nc(C(=O)Nc2nc(-c3ccccn3)cs2)c2ccccc2c1=O,inactive: 1.73%
2,CCc1nnc(NS(=O)(=O)c2ccc(N3C(=O)c4ccccc4C3=O)cc2)s1,inactive: 1.69%
3,CC(=O)c1ccc(N2CCN(S(=O)(=O)c3c(C(=O)N4CCCC4)c(C)n(C)c3C)CC2)cc1,inactive: -0.151%
4,O=C(NCCCN1CCCC1=O)c1cc2c(s1)CCCCC2,inactive: 1.69%
5,Cc1nc(CN(C)C(=O)C2CCC(=O)N(CCc3cccc(F)c3)C2)cs1 (stereo not given),inactive: 1.18%
6,CC(=O)n1nc(-c2ccccc2)nc1NCc1cccs1,inactive: 1.06%
7,Cc1nc(-c2ccc(NC(=O)Cc3ccccc3)cc2)cs1,inactive: -1.46%
8,CCC(CO)NCc1ccc(OC2CCCC2)cc1 (stereo not given),inactive: -0.802%
9,CSc1ccc(CN(C)C(=O)CNC(=O)CNS(=O)(=O)c2ccc(C)c(C)c2)cc1,inactive: -3.57%
10,Cc1ccc(NC(=O)c2cccs2)cc1NC(=O)c1cccnc1,inactive: -4.15%
11,Nc1nc(C2CCCN2S(=O)(=O)c2ccc(Cl)cc2)cs1 (stereo not given),inactive: -0.705%
12,O=C(CNc1ccccc1F)N/N=C/C1CC=CCC1 (stereo not given),inactive: -1.68%
13,CCNC(=S)N(CCc1ccc(OC)c(OC)c1)Cc1cc2cc(OC)ccc2[nH]c1=O,inactive: 2.69%
14,O=C(NC1CCCC1)C1CC(=O)N(c2ccc(F)cc2)C1 (stereo not given),inactive: -3.11%
15,Cc1cc(Br)cc(Cl)c1OC(=O)c1ccncc1,inactive: 3.85%
16,CC(=O)c1ccc(S(=O)(=O)Nc2ccc(Cl)c(S(=O)(=O)N3CCCC3)c2)cc1,inactive: -0.859%
17,O=C(NCCCN1CCOCC1)c1ccc2c(c1)N(Cc1ccccc1)CCS2,inactive: 7.62%
18,COc1ccc(Cl)cc1C(=O)NNC(=O)CNC(=O)c1ccc(C)s1,inactive: -0.888%
19,COc1ccc(S(=O)(=O)N2CCCCCC2)cc1NC(C)C(=O)Nc1ccc(NC(C)=O)cc1 (stereo not given),inactive: 0.725%
20,COc1ccccc1OCC(=O)NCCS(=O)(=O)N1CCN(c2ccc(F)cc2)CC1,inactive: 0.117%
